Measurements reported in PubChem BioAssay AID602196 (INSERM, 2012).
Purpose: 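Modifiers of cisplatin sensitivity in A549 cells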. Cell system: human A549 lung cancer cells. Reagents: siRNA pair against human genes. Duration: 48 h transfection before cisplatin; time from cisplatin to read-out not stated. Challenge: cisplatin at a dose killing half of control-siRNA cells; exact dose and duration not given. Measurement: 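Shift in cisplatin death relative to control siRNA, from -50 (all cells die) to +50 (no cells die); siRNAs harmful on their own scored 0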. Scale: two-siRNA summed score (-2 to +2): higher = both siRNAs protect from cisplatin killing; -2 means both sensitise; mean protection from cisplatin (shift in death) and protection from cisplatin (shift in death), siRNA C and protection from cisplatin (shift in death), siRNA D: higher = protection from cisplatin killing. Hit rule: 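Each siRNA scores 0 if harmful alone by LDH or WST-1, otherwise +1 if it reduces and -1 if it increases cisplatin killing; a gene is active when both siRNAs agree (sum +2 or -2)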. Meaning of the calls: active = both siRNAs shift cisplatin killing the same way; inactive = no consistent shift, or siRNA harmful alone.
In all, the deposit lists about 23,000 reagents; shown is a part drawn at random. Over the whole deposit, 455 (2%) were called active. 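Active includes both protection and sensitisation; some change values fall well beyond the stated -50 to +50 range.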 Not stated in the record: the amount of reagent.

gene	two-siRNA summed score (-2 to +2)	mean protection from cisplatin (shift in death) (%)	protection from cisplatin (shift in death), siRNA C (%)	protection from cisplatin (shift in death), siRNA D (%)	Outcome
EPG5 (ectopic P-granules 5 autophagy tethering factor)	0	-14	-15.6	-12.4	inactive
KLHDC10 (kelch domain containing 10)	-1	0.4	10.7	-10	inactive
LOC442503	0	3.1	6.6	-0.4	inactive
KIAA1030	0	6.2	3.3	9	inactive
CASC3 (CASC3 exon junction complex subunit)	1	11.8	19.4	4.2	inactive
ZNF567 (zinc finger protein 567)	0	1.6	6.9	-3.8	inactive
APOBEC3A (apolipoprotein B mRNA editing enzyme catalytic subunit 3A)	2	16.5	16.2	16.7	active
PTDSS2 (phosphatidylserine synthase 2)	0	0.3	-4.9	5.6	inactive
MRAP (melanocortin 2 receptor accessory protein)	0	1.1	-6.7	8.8	inactive
LINC01597 (long independently transcribed non-coding RNA 1597)	0	1.7	7.4	-3.9	inactive
ARID4B (AT-rich interaction domain 4B)	0	0.2	-13.8	14.2	inactive
EFL1 (elongation factor like GTPase 1)	-1	-7.9	2.7	-18.6	inactive
FBXL5 (F-box and leucine rich repeat protein 5)	-1	-23.6	-30.9	-16.2	inactive
GLIDR (glioblastoma down-regulated RNA)	0	10.1	4.3	15.9	inactive
AURKAIP1 (aurora kinase A interacting protein 1)	1	9.5	4.5	14.6	inactive
PLPP1 (phospholipid phosphatase 1)	0	-2.9	0.7	-6.4	inactive
NOP10 (NOP10 ribonucleoprotein)	0	10.6	-0.5	21.8	inactive
VANGL1 (VANGL planar cell polarity protein 1)	0	11.1	13.2	9.1	inactive
EXTL1 (exostosin like glycosyltransferase 1)	1	11	23.4	-1.4	inactive
LOC441743	0	17.1	7.5	26.7	inactive
KL (klotho)	0	-0.9	-7.4	5.6	inactive
TMEM9 (transmembrane protein 9)	0	1.8	0.9	2.7	inactive
ZNF33A (zinc finger protein 33A)	1	2	-6.3	10.2	inactive
LOC200292	0	6.9	-6	19.9	inactive
NDC80 (NDC80 kinetochore complex component)	0	-14.4	-2.1	-26.7	inactive
CD300LG (CD300 molecule like family member g)	0	0.4	8.9	-8	inactive
TSR3 (TSR3 ribosome maturation factor)	0	3.3	0.8	5.8	inactive
LOC89231	2	10.4	12.2	8.5	active
SLC22A4	0	13.4	30.2	-3.5	inactive
SSX8P (SSX family member 8, pseudogene)	0	10	-3.9	23.9	inactive
STX1A (syntaxin 1A)	-2	-21.7	-26.4	-16.9	active
RIN1 (Ras and Rab interactor 1)	-1	-9.6	1.6	-20.8	inactive
LOC388903	1	13.4	15.7	11.2	inactive
KCNIP4 (potassium voltage-gated channel interacting protein 4)	0	2.1	-2.1	6.2	inactive
NUDT15 (nudix hydrolase 15)	0	13.5	4	23	inactive
CMTM7 (CKLF like MARVEL transmembrane domain containing 7)	0	2.2	7.8	-3.4	inactive
FBXW9 (F-box and WD repeat domain containing 9)	0	3.4	16.7	-9.8	inactive
RBMXL2 (RBMX like 2)	0	7.5	15.3	-0.2	inactive

Part of the list above, reformatted.
| gene | two-siRNA summed score (-2 to +2) | mean protection from cisplatin (shift in death) (%) | protection from cisplatin (shift in death), siRNA C (%) | protection from cisplatin (shift in death), siRNA D (%) | Outcome |
| --- | --- | --- | --- | --- | --- |
| LOC442503 | 0 | 3.1 | 6.6 | -0.4 | inactive |
| KIAA1030 | 0 | 6.2 | 3.3 | 9 | inactive |
| CASC3 (CASC3 exon junction complex subunit) | 1 | 11.8 | 19.4 | 4.2 | inactive |
| ZNF567 (zinc finger protein 567) | 0 | 1.6 | 6.9 | -3.8 | inactive |
| APOBEC3A (apolipoprotein B mRNA editing enzyme catalytic subunit 3A) | 2 | 16.5 | 16.2 | 16.7 | active |
| PTDSS2 (phosphatidylserine synthase 2) | 0 | 0.3 | -4.9 | 5.6 | inactive |

More reagents:
gene	two-siRNA summed score (-2 to +2)	mean protection from cisplatin (shift in death) (%)	protection from cisplatin (shift in death), siRNA C (%)	protection from cisplatin (shift in death), siRNA D (%)	Outcome
IYD (iodotyrosine deiodinase)	0	5	4.8	5.2	inactive
GJD4 (gap junction protein delta 4)	0	0.4	-8.6	9.4	inactive
CITED4 (Cbp/p300 interacting transactivator with ED-rich tail 4)	0	9.3	-2.7	21.4	inactive
LOC440939	0	9	9.5	8.5	inactive
ABR (ABR activator of RhoGEF and GTPase)	0	19.8	16.4	23.2	inactive
RIMKLB (ribosomal modification protein rimK like family member B)	0	4.6	22.2	-12.9	inactive
POLR1G (RNA polymerase I subunit G)	0	-3.6	6.9	-14.1	inactive
F2RL3 (F2R like thrombin or trypsin receptor 3)	0	3.6	-11.4	18.7	inactive
SNX8 (sorting nexin 8)	0	-17.5	-41.3	6.4	inactive
LOC442022	2	15.9	14.5	17.2	active
KCNA5 (potassium voltage-gated channel subfamily A member 5)	-1	-13.4	-30.8	4.1	inactive
UGT2B7 (UDP glucuronosyltransferase family 2 member B7)	0	4.5	-3.4	12.4	inactive
INPP5J (inositol polyphosphate-5-phosphatase J)	2	17.7	15.7	19.8	active
TMEM86B (transmembrane protein 86B)	0	4.4	8	0.9	inactive
SYNPR (synaptoporin)	1	14.4	15.4	13.4	inactive
NFKBIA (NFKB inhibitor alpha)	0	-5.2	-32.7	22.2	inactive
PARD6B (par-6 family cell polarity regulator beta)	0	7.5	5.4	9.5	inactive
LOC441215	0	1.8	4.4	-0.9	inactive
LOC388298	1	12.7	-0.9	26.4	inactive
